From the supplement of paper PMC4604168 (melanoma cell lines)
The other results are listed elsewhere or left out. Many values rest on one well or one pass, so single values are uncertain.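 The apoptosis fraction was the count of cleaved-PARP antibody-stained nuclei relative to all DNA-stained nuclei, imaged in 1,536-well plates. Screening doses were set so most cells survived, and baseline and induced cleaved-PARP levels vary greatly across cell lines.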

Each molecule was assayed on LB2518-MEL (assay: cleaved PARP positive nuclei fraction relative to DMSO control; melanoma cells; higher = more apoptosis). Details: library dose: low library concentration; 72 h.

Compound	cleaved PARP positive nuclei fraction [%]
CN(c1ncccc1CNc1nc(Nc2ccc3c(c2)CC(=O)N3)ncc1C(F)(F)F)S(C)(=O)=O + C=CCNC1=C2C[C@@H](C)C[C@H](OC)[C@H](O)[C@@H](C)/C=C(\C)[C@H](OC(N)=O)[C@@H](OC)/C=C\C=C(/C)C(=O)NC(=CC1=O)C2=O [Tanespimycin] (first compound 0.08 µM, partner dose 0.002 µM)	112
C[C@]1(O)C[C@@H](c2nc(-c3ccc4ccc(-c5ccccc5)nc4c3)c3c(N)nccn32)C1 + CCN(CC)CCNC(=O)c1c(C)[nH]c(/C=C2\C(=O)Nc3ccc(F)cc32)c1C [sunitinib] (first compound 0.4 µM, partner dose 0.4 µM)	93
C[C@]1(O)C[C@@H](c2nc(-c3ccc4ccc(-c5ccccc5)nc4c3)c3c(N)nccn32)C1 + C[C@]1(c2nc3c(C(N)=O)cccc3[nH]2)CCCN1 [Veliparib] (first compound 0.4 µM, partner dose 1.4 µM)	118
CCN(CC)CCNC(=O)c1c(C)[nH]c(/C=C2\C(=O)Nc3ccc(F)cc32)c1C [sunitinib] + C[C@]1(c2nc3c(C(N)=O)cccc3[nH]2)CCCN1 [Veliparib] (first compound 0.4 µM, partner dose 1.4 µM)	123
CC1(C)CCC(c2ccc(Cl)cc2)=C(CN2CCN(c3ccc(C(=O)NS(=O)(=O)c4ccc(N[C@H](CCN5CCOCC5)CSc5ccccc5)c(S(=O)(=O)C(F)(F)F)c4)cc3)CC2)C1 + CN1CCN(c2ccc3nc(-c4c(N)c5c(F)cccc5[nH]c4=O)[nH]c3c2)CC1 [Dovitinib] (first compound 0.4 µM, partner dose 0.1 µM)	65.4
Cn1sc(=O)n(Cc2ccccc2)c1=O + Cn1c(Nc2ccc(C(F)(F)F)cc2)nc2cc(Oc3ccnc(-c4ncc(C(F)(F)F)[nH]4)c3)ccc21 [CHIR265] (first compound 0.4 µM, partner dose 0.08 µM)	663
Cn1cnc2c(F)c(Nc3ccc(Br)cc3Cl)c(C(=O)NOCCO)cc21 [selumetinib] + C#Cc1cccc(Nc2ncnc3cc(OCCOC)c(OCCOC)cc23)c1 [erlotinib] (first compound 0.015 µM, partner dose 0.8 µM)	138
NC(=O)c1ccc(N(C(N)=O)c2c(F)cccc2F)nc1-c1ccc(F)cc1F + C[C@@H](Oc1cc(-c2cnn(C3CCNCC3)c2)cnc1N)c1c(Cl)ccc(F)c1Cl [Crizotinib] (first compound 0.4 µM, partner dose 0.2 µM)	113
CCN(CC)CCNC(=O)c1c(C)[nH]c(/C=C2\C(=O)Nc3ccc(F)cc32)c1C [sunitinib] + Nc1ccn([C@@H]2O[C@H](CO)[C@@H](O)C2(F)F)c(=O)n1 [gemcitabine] (first compound 0.4 µM, partner dose 0.0004 µM)	98.2
CC1(C)CCC(c2ccc(Cl)cc2)=C(CN2CCN(c3ccc(C(=O)NS(=O)(=O)c4ccc(N[C@H](CCN5CCOCC5)CSc5ccccc5)c(S(=O)(=O)C(F)(F)F)c4)cc3)CC2)C1 + CS(=O)(=O)CCNCc1ccc(-c2ccc3ncnc(Nc4ccc(OCc5cccc(F)c5)c(Cl)c4)c3c2)o1 [lapatinib] (first compound 0.4 µM, partner dose 0.8 µM)	130
CC1(C)CCC(c2ccc(Cl)cc2)=C(CN2CCN(c3ccc(C(=O)NS(=O)(=O)c4ccc(N[C@H](CCN5CCOCC5)CSc5ccccc5)c(S(=O)(=O)C(F)(F)F)c4)cc3)CC2)C1 + CCCS(=O)(=O)Nc1ccc(F)c(C(=O)c2c[nH]c3ncc(Cl)cc23)c1F [PLX4720] (first compound 0.4 µM, partner dose 0.08 µM)	257
CN(c1ncccc1CNc1nc(Nc2ccc3c(c2)CC(=O)N3)ncc1C(F)(F)F)S(C)(=O)=O + NC1(c2ccc(-c3nc4ccn5c(=O)[nH]nc5c4cc3-c3ccccc3)cc2)CCC1 [MK2206] (first compound 0.08 µM, partner dose 0.4 µM)	123
C[C@@H](N)c1ccc(C(=O)Nc2ccnc3[nH]ccc23)cc1 + Nc1ccn([C@@H]2O[C@H](CO)[C@@H](O)C2(F)F)c(=O)n1 [gemcitabine] (first compound 0.4 µM, partner dose 0.0004 µM)	186

2 records picked at random from the list so far, as already listed:
Compound	cleaved PARP positive nuclei fraction [%]
C[C@@H](N)c1ccc(C(=O)Nc2ccnc3[nH]ccc23)cc1 + Nc1ccn([C@@H]2O[C@H](CO)[C@@H](O)C2(F)F)c(=O)n1 [gemcitabine] (first compound 0.4 µM, partner dose 0.0004 µM)	186
CC1(C)CCC(c2ccc(Cl)cc2)=C(CN2CCN(c3ccc(C(=O)NS(=O)(=O)c4ccc(N[C@H](CCN5CCOCC5)CSc5ccccc5)c(S(=O)(=O)C(F)(F)F)c4)cc3)CC2)C1 + CCCS(=O)(=O)Nc1ccc(F)c(C(=O)c2c[nH]c3ncc(Cl)cc23)c1F [PLX4720] (first compound 0.4 µM, partner dose 0.08 µM)	257
